In article PMC12137620, “Targeting the MDK/c‐Myc complex to overcome temozolomide resistance in glioma” (Clinical and Translational Medicine, 2025):
No constants are given. Whether binding was seen depends on the method and setting. Binding seen in cells or lysates may run through a third protein. These calls come from enrichment with a bait or labelling near it, and not all partners need be listed. Tags and fused reporters may be left off the sequences shown.

Sequences of proteins named here, by UniProt entry; tags and fusion partners are left off.
UniProt P01106: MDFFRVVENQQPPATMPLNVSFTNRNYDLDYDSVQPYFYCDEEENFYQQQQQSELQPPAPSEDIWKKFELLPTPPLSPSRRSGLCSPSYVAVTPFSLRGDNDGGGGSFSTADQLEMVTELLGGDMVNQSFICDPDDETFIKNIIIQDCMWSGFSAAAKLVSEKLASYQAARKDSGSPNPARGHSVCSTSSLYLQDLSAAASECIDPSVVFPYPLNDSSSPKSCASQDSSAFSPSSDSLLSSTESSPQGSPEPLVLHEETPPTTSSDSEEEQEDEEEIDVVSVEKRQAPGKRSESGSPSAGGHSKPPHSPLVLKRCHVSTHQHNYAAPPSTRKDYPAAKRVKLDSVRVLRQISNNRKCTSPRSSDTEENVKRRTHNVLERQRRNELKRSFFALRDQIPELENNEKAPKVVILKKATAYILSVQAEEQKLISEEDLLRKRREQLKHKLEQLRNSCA

T1: FLAG-MDK (midkine) (human) (UniProt P21741)
T1 sequence: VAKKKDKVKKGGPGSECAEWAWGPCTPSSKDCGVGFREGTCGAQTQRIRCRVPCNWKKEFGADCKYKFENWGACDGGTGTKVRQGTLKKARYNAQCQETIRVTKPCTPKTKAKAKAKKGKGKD


Target: T1, FLAG-MDK (midkine) (human)
Assay: affinity purification with mass spectrometry; FLAG-MDK stably expressed in SF126 and U118MG cells; RIPA lysates; anti-FLAG magnetic beads; SDS-PAGE, silver stain, differential band (50-70 kDa) cut and identified by Orbitrap mass spectrometry

Row | binding | Molecule
1 | binds | c-Myc, endogenous in glioma cells (from UniProt P01106 1-454)
2 | binds | USP22, endogenous in glioma cells (enzyme, UniProt Q9UPT9 1-525) MVSRPEPEGEAMDAELAVAPPGCSHLGSFKVDNWKQNLRAIYQCFVWSGTAEARKRKAKSCICHVCGVHLNRLHSCLYCVFFGCFTKKHIHEHAKAKRHNLAIDLMYGGIYCFLCQDYIYDKDMEIIAKEEQRKAWKMQGVGEKFSTWEPTKRELELLKHNPKRRKITSNCTIGLRGLINLGNTCFMNCIVQALTHTPLLRDFFLSDRHRCEMQSPSSCLVCEMSSLFQEFYSGHRSPHIPYKLLHLVWTHARHLAGYEQQDAHEFLIAALDVLHRHCKGDDNGKKANNPNHCNCIIDQIFTGGLQSDVTCQVCHGVSTTIDPFWDISLDLPGSSTPFWPLSPGSEGNVVNGESHVSGTTTLTDCLRRFTRPEHLGSSAKIKCSGCHSYQESTKQLTMKKLPIVACFHLKRFEHSAKLRRKITTYVSFPLELDMTPFMASSKESRMNGQYQQPTDSLNNDNKYSLFAVVNHQGTLESGHYTSFIRQHKDQWFKCDDAIITKASIKDVLDSEGYLLFYHKQFLEYE
